About 5,400 (1.8%) of roughly 300,000 compounds were called active. The inconclusive results got no clear call from the source; some entries with a clear call stand among them for comparison. Calls come from the whole dose curve; tested in HEK293 cells. A potency beside an inconclusive call is a rough fit, not a confirmed value.
assay: qHTS for inhibitors of binding or entry into cells for Marburg Virus; conditions: Marburg virus pseudotyped entry inhibition, cell reporter; series mostly up to 37.8 µM
Potency is the fitted concentration of half-maximal effect.

Question: With `CCOc1ccccc1C(=O)N(Cc1ccco1)Cc1ccccc1F` as the molecule, how does the Potency read?
Answer: inactive

Question: With `CC(=O)Nc1ccc2c(c1)-c1ccc(F)cc1C2` as the molecule, how does the Potency read?
Answer: inconclusive: 3.16 µM [activator, partial curve, poor fit]

Question: Which Potency does the source give for `Cc1ccc2c(c1)c1ncnc(N3CCOCC3)c1n2C` here?
Answer: inconclusive: 35.5 µM [inhibitor, single point]

Question: With `C=CCOC(=O)C(C(C)=O)C(NC(=O)OC)c1cccc(C(F)(F)F)c1` (stereo not drawn) as the molecule, how does the Potency read?
Answer: inconclusive: 0.266 µM [activator, partial curve, poor fit]

Question: Which Potency does the source give for `Cc1cc([N+](=O)[O-])ccc1NCc1cccc2ccccc12` here?
Answer: inconclusive: 18.3 µM [inhibitor, partial curve, poor fit]

Question: Which Potency does the source give for `CN(C)Cc1c(O)ccc2occ(C(=O)c3ccc(F)cc3)c12` here?
Answer: inconclusive: 22.4 µM [inhibitor, single point]

Question: With `O=C1COc2ccc(OCc3ccc(F)cc3)cc21` as the molecule, how does the Potency read?
Answer: inconclusive: 14.6 µM [activator, partial curve, poor fit]

Question: For `C=CCn1c(N)nc2ccccc21`, which Potency is on record?
Answer: inconclusive: 0.708 µM [inhibitor, single point]

Question: For `CCOC(=O)c1ccc(N/C=C\C(=O)c2cccc(OC)c2)cc1`, which Potency is on record?
Answer: inconclusive: 29.1 µM [activator, partial curve, poor fit]

Question: For `C=CCn1c(O)c(N=NC(=S)Nc2ccccc2F)c2cc(S(=O)(=O)N3CCOCC3)ccc21`, which Potency is on record?
Answer: inconclusive: 4.47 µM [inhibitor, full curve, poor fit]

Question: Which Potency does the source give for `CCSc1nc2ccccc2n1CCC(=O)O` here?
Answer: inconclusive: 35.5 µM [inhibitor, single point]

Question: For `CCOc1cc(/C=N/N=C(N)N)ccc1OCc1ccc(Cl)cc1`, which Potency is on record?
Answer: inconclusive: 23.1 µM [inhibitor, single point]

Question: With `COc1cc(/C=N/OCC(=O)Nc2cc(C)cc(C)c2)ccc1OCc1ccc(Cl)cc1` as the molecule, how does the Potency read?
Answer: inconclusive: 2.82 µM [inhibitor, partial curve, poor fit]

Question: For `Cc1ccc([N+](=O)[O-])cc1NC1CC(O)C(CO)O1` (stereo not drawn), which Potency is on record?
Answer: inactive

Question: Which Potency does the source give for `CCN(CC)S(=O)(=O)c1ccc(N2C(=O)CC2(/C=C/c2ccccc2)C(=O)NC2CCCC2)cc1` (stereo not drawn) here?
Answer: inconclusive: 15.8 µM [inhibitor, single point]

Question: For `N=C1c2ccccc2-c2ccccc21`, which Potency is on record?
Answer: inconclusive: 5.62 µM [inhibitor, single point]

Question: Which Potency does the source give for `CC1=CCC(COC(=O)Nc2ccccc2)CC1` (stereo not drawn) here?
Answer: inactive

Question: For `COCCn1cnnc1SCC(=O)Nc1cccc(S(=O)(=O)N2CCCCC2)c1`, which Potency is on record?
Answer: inconclusive: 1.26 µM [inhibitor, single point]

Question: With `O=S(=O)(c1ccc(Cl)cc1)c1nc(-c2ccccc2F)oc1NCCCN1CCOCC1` as the molecule, how does the Potency read?
Answer: inconclusive: 35.5 µM [inhibitor, single point]

Question: With `COc1ccc(N2CCN(C(=O)C3CCN(C(=O)c4ccc([N+](=O)[O-])cc4)CC3)CC2)cc1` as the molecule, how does the Potency read?
Answer: inconclusive: 6.31 µM [inhibitor, single point]

Question: Which Potency does the source give for `O=C(COC(=O)c1ccccc1Br)Nc1ccc2[nH]c(=O)[nH]c2c1` here?
Answer: inactive

Question: For `CC(C)(C)CC(C)(C)NC(=S)Nc1ccc(S(=O)(=O)N2CCOCC2)cc1`, which Potency is on record?
Answer: inconclusive: 16.4 µM [inhibitor, partial curve, poor fit]

Question: Which Potency does the source give for `COc1ccc(NC(=O)c2ccc(COCC(F)(F)C(F)F)cc2)cc1OC` here?
Answer: inconclusive: 5.62 µM [activator, single point]

Question: With `Cn1c(C(=O)OC(C(=O)NC2CCCCC2)c2ccncc2)cc2sccc21` (stereo not drawn) as the molecule, how does the Potency read?
Answer: inconclusive: 10.3 µM [inhibitor, partial curve]

Question: For `O=C(Cn1ncc2c3ccccc3n(Cc3ccccc3F)c2c1=O)NCCCc1ccccc1`, which Potency is on record?
Answer: inactive

Question: Which Potency does the source give for `CC(C)OCCCNC(=O)CN1C(=O)COc2ccc(S(=O)(=O)N3CCOCC3)cc21` here?
Answer: inactive

Question: For `Cc1ccc(C)c2[nH]c(=O)c(CN(Cc3ccc4c(c3)OCO4)Cc3nnnn3Cc3ccco3)cc12`, which Potency is on record?
Answer: inconclusive: 11.2 µM [inhibitor, partial curve, poor fit]

Question: For `CN(C(=O)CN1C(=O)C2C3CC(C(Br)C3Br)C2C1=O)C1CCCCC1` (stereo not drawn), which Potency is on record?
Answer: inconclusive: 15.8 µM [inhibitor, partial curve, poor fit]

Question: With `O=[N+]([O-])c1cccc(-c2ccc(/C=N/NC(=S)NCc3ccco3)o2)c1` as the molecule, how does the Potency read?
Answer: inconclusive: 35.5 µM [inhibitor, single point]

Question: Which Potency does the source give for `C=CCN(CC=C)CC(O)Cn1c2ccccc2c2ccccc21` (stereo not drawn) here?
Answer: active: 8.2 µM

Question: Which Potency does the source give for `Cc1ccc(N(CC(=O)NC2CCCC2)C(=O)Cn2nnc(-c3ccccc3F)n2)cc1` here?
Answer: inconclusive: 11.2 µM [inhibitor, partial curve, poor fit]

Question: Which Potency does the source give for `COC(=O)c1cc(OC)c(OC)cc1NC(=O)c1ccc(C)o1` here?
Answer: inconclusive: 16.4 µM [inhibitor, single point]

Question: With `COC(=O)c1sc2ccccc2c1NC(=O)c1ccc(S(=O)(=O)N2CCCCC2C)cc1` (stereo not drawn) as the molecule, how does the Potency read?
Answer: inconclusive: 32.6 µM [inhibitor, single point]

Question: Which Potency does the source give for `Cc1nc(CCNC(=O)C2CCC(=O)N(CCc3cccc(F)c3)C2)sc1C` (stereo not drawn) here?
Answer: inactive

Question: For `Cc1oc(-c2cccc(Cl)c2)nc1CSCC(=O)NCc1ccccc1Cl`, which Potency is on record?
Answer: inactive

Question: With `COc1ccc(S(=O)(=O)N2Cc3ccccc3CC2C(=O)Nc2ccc3c(c2)OCO3)cc1` (stereo not drawn) as the molecule, how does the Potency read?
Answer: inactive

Question: With `CCOc1cc(CNCCO)cc(Br)c1OCc1ccc(Cl)cc1Cl` as the molecule, how does the Potency read?
Answer: inconclusive: 35.5 µM [inhibitor, single point]

Question: For `Cc1cccc(-n2ncc3c2CCCC3NC(=O)CCN2CCCCO2)c1C` (stereo not drawn), which Potency is on record?
Answer: inconclusive: 12.6 µM [inhibitor, single point]

Question: With `C=CC[n+]1c(C)csc1Nc1ccc(C)cc1` as the molecule, how does the Potency read?
Answer: inactive

Question: Which Potency does the source give for `O=C(OCc1nnc(-c2ccccc2)o1)c1ccc(-n2cnnn2)cc1` here?
Answer: inactive

Question: Which Potency does the source give for `COC(=O)c1ccc(CSc2nnc(NC(=O)C3CC(=O)N(c4ccc5c(c4)OCCO5)C3)s2)cc1` (stereo not drawn) here?
Answer: inactive

Question: For `CCn1c(=O)c2sccc2n2c(CCC(=O)NCc3ccc(Cl)cc3)nnc12`, which Potency is on record?
Answer: inactive

Question: With `Cc1ccccc1OCc1nc2ccccc2[nH]1` as the molecule, how does the Potency read?
Answer: inconclusive: 35.5 µM [inhibitor, single point]

— PubChem BioAssay AID540276 (National Center for Advancing Translational Sciences (NCATS), 2011)
